The values below come from the supplement of paper PMC11006884.

Protein sequences, listed by entry. Tags and fused reporters are not part of them. Lines headed by an entry give the natural chain unless they say otherwise; changes in a name come on top.
UniProt Q13123, whole entry: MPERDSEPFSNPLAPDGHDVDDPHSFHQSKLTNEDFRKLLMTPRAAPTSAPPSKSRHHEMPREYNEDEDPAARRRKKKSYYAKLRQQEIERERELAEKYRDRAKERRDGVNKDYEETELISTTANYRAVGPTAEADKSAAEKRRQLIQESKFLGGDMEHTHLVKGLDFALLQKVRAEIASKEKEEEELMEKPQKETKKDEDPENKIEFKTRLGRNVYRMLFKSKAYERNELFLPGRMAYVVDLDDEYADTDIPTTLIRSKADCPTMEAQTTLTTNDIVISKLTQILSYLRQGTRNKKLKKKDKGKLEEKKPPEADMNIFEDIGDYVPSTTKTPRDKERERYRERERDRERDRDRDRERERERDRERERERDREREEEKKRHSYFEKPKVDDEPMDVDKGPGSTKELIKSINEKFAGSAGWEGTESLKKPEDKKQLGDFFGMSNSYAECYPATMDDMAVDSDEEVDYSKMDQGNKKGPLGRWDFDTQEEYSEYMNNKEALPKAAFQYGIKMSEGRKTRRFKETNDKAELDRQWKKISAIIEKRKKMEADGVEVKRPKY
UniProt Q02952: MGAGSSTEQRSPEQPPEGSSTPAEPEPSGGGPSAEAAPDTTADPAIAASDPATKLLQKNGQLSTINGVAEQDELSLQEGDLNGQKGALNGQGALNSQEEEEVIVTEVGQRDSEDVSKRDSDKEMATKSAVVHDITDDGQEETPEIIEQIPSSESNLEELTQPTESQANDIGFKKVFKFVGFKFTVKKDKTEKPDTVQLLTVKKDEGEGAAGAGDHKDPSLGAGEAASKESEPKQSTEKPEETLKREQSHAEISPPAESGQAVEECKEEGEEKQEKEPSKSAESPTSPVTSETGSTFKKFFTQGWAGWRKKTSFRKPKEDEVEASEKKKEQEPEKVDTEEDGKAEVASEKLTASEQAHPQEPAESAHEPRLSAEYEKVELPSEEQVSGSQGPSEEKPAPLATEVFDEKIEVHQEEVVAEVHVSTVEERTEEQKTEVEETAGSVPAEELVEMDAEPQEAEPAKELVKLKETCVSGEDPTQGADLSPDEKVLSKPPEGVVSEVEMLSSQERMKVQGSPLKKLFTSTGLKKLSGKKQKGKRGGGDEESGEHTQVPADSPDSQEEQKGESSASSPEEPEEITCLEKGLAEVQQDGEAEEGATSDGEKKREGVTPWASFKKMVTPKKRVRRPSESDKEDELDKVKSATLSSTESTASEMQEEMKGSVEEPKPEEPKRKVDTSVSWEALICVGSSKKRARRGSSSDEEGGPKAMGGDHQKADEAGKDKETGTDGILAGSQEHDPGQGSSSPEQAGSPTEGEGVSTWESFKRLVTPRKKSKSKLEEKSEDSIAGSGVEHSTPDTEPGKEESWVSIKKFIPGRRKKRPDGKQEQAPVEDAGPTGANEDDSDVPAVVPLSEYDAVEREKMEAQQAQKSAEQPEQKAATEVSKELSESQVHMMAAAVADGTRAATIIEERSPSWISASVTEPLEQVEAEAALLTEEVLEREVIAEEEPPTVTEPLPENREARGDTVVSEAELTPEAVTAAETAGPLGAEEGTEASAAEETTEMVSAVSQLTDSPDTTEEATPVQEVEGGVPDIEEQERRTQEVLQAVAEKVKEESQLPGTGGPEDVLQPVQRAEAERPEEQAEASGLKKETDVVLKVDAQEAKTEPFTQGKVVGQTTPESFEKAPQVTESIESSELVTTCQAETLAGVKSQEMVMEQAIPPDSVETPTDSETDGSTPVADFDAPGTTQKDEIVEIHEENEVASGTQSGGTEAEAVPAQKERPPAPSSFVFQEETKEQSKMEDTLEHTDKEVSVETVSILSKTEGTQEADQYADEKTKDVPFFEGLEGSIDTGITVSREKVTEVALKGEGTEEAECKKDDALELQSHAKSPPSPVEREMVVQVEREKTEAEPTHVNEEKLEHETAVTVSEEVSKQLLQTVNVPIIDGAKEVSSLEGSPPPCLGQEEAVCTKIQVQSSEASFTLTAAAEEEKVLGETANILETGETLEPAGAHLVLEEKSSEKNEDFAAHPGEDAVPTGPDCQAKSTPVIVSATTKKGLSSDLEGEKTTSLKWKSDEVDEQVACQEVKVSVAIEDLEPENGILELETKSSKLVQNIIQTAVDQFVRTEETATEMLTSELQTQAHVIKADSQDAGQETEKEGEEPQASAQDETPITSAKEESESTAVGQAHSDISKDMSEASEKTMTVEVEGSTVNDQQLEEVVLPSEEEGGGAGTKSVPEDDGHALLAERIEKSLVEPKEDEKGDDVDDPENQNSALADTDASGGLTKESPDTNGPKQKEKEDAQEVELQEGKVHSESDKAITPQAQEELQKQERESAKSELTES
UniProt Q13263: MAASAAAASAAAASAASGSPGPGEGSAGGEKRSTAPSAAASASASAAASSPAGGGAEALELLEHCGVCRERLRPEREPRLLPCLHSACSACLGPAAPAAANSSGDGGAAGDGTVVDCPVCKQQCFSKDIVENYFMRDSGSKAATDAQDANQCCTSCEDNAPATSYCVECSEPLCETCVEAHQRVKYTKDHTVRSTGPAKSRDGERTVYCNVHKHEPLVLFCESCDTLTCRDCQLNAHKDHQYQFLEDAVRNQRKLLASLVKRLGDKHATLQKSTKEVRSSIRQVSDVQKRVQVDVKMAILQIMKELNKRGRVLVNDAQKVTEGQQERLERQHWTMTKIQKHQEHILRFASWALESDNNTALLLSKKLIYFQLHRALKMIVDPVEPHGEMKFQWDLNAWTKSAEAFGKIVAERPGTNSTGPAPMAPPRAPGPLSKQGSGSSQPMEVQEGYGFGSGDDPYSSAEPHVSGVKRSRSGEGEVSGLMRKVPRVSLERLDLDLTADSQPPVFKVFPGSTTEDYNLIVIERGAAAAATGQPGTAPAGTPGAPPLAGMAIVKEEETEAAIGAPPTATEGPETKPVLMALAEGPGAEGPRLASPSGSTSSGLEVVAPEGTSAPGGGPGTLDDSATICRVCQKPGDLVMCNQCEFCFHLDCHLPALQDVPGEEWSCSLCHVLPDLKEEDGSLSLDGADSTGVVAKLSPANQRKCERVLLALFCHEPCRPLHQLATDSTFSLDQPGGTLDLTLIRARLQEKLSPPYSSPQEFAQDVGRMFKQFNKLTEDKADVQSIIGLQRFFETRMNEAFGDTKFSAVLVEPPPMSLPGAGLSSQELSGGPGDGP
UniProt Q12789: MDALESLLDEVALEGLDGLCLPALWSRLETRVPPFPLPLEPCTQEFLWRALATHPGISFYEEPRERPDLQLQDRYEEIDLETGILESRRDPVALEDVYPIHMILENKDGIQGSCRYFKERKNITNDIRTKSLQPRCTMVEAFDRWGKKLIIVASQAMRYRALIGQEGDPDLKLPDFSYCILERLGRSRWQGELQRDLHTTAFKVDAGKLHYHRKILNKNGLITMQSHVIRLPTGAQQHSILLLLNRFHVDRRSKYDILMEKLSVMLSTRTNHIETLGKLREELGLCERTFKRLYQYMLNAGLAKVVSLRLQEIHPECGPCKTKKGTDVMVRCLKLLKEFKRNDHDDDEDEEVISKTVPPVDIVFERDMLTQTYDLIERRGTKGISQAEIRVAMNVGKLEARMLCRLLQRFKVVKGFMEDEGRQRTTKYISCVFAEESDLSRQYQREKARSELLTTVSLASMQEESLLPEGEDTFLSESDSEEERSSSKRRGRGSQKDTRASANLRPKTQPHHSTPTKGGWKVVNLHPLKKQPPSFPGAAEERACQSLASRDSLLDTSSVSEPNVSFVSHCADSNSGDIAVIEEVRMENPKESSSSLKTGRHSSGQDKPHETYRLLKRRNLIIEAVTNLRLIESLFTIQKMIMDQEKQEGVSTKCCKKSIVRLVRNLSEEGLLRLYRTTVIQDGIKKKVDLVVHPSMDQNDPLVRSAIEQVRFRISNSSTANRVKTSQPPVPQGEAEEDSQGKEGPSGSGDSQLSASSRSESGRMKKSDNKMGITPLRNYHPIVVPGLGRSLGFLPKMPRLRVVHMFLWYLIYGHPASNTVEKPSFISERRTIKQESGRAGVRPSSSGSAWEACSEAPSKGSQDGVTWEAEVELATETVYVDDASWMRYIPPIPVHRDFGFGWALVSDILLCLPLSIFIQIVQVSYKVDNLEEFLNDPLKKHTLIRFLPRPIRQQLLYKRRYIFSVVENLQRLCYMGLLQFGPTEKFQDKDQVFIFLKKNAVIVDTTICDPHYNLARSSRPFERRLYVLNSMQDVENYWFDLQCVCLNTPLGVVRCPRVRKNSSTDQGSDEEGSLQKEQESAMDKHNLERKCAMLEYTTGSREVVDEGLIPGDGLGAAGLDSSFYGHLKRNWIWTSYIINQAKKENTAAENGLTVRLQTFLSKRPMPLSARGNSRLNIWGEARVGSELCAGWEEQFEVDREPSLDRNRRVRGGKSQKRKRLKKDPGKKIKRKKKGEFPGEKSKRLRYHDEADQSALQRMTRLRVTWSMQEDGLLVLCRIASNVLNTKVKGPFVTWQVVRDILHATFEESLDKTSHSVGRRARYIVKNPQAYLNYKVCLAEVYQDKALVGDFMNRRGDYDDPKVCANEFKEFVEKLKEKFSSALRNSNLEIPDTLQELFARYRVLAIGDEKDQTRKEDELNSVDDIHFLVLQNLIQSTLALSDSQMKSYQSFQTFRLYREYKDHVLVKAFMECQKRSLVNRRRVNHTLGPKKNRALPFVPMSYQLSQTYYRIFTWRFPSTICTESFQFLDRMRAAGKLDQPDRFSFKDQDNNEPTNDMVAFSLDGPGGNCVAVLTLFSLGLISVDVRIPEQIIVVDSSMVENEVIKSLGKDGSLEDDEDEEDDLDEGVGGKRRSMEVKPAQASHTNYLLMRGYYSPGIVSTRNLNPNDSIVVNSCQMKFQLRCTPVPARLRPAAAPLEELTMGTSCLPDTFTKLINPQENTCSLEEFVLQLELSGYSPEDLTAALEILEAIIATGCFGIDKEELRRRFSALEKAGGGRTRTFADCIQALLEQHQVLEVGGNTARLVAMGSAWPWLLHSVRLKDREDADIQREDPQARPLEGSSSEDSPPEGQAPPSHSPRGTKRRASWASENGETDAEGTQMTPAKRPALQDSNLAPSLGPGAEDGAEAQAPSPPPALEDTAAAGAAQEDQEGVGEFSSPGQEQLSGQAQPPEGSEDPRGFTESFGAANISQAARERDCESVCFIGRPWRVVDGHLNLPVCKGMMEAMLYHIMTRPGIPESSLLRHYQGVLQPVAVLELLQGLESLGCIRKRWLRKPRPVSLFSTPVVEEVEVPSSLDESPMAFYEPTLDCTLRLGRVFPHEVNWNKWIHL
UniProt Q13045: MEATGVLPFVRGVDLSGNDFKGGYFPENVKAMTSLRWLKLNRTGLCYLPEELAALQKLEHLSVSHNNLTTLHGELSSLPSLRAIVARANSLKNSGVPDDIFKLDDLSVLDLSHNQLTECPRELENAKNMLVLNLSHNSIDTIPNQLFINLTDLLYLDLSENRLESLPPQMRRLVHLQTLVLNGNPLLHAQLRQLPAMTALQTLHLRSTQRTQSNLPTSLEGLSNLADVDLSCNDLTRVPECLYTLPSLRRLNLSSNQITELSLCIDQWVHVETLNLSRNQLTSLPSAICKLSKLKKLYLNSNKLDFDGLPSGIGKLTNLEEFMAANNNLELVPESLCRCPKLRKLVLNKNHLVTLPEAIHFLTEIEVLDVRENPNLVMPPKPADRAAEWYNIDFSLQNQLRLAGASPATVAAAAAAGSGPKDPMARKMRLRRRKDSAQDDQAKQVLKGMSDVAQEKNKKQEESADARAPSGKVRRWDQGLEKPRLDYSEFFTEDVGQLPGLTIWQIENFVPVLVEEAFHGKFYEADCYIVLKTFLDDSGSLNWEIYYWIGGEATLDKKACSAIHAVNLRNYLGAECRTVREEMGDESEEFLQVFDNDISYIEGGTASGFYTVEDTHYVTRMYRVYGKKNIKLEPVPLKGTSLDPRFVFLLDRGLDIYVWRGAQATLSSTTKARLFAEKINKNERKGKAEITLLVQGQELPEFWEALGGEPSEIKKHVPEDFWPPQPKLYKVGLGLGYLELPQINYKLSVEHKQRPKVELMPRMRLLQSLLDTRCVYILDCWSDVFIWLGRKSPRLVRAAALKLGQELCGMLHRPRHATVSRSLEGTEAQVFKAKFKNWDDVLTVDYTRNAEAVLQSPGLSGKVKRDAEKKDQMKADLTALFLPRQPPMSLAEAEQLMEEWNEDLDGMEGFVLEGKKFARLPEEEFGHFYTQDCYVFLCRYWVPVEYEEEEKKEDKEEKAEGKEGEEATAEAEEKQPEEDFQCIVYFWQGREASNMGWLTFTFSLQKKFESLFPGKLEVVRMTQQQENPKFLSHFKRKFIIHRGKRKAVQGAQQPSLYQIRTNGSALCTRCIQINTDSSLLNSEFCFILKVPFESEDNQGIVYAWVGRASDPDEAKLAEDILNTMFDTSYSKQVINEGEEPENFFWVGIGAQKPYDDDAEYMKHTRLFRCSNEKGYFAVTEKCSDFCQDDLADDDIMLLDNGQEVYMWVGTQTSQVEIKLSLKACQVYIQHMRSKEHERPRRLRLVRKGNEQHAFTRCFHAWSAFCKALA

The entries are a selection whose mix differs from that of the whole data set.

Compound in this assay: COC(=O)C#Cc1ccccc1 [methyl 3-phenylpropiolate]
Kind of assay: log2 ratio of iodoacetamide-alkyne labeling of the cysteine site, DMSO over compound (competition); higher = stronger covalent engagement of the cysteine by the compound, active = 1 or more. Particulars: 500 µM; treatment time 1 h; system: HEK293T cell lysate. The method, boiled down:
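HEK293T lysate at 2 mg/mL was treated with vehicle or electrophile (500 µM) for 1 h at ambient temperature, then labelled with iodoacetamide alkyne (1 h), clicked to sCIP-TMT reagents, pooled, digested with trypsin overnight at 37 °C, enriched on streptavidin and eluted with acid. Peptides were analysed by Orbitrap Eclipse LC-MS/MS with FAIMS and quantified in FragPipe, using duplicate channels and three replicates, with cysteines quantified in only one replicate excluded. The log2 competition ratio for each cysteine is the mean control-channel reporter intensity divided by the mean compound-channel reporter intensity.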

For IK C263 (UniProt Q13123), the “log2 ratio of iodoacetamide-alkyne labeling” value (“log2 ratio” for short) is inactive: 0.289.
On to UniProt Q12824_C350, for which the “log2 ratio” value is inactive: 0.273.
The same measure for AKAP12 C470 (UniProt Q02952): inactive: 0.121; for GOLGA2 C794 (UniProt Q08379): active: 1.07.
For the target GPS1 C251 (UniProt Q13098), the “log2 ratio” value is inactive: 0.23.
For the target HNRNPA0 C49 (UniProt Q13151), the “log2 ratio” value is inactive: 0.0396.
With UniProt Q12824_C167 the figure was inactive: 0.143; with AKAP13 C1276 (UniProt Q12802), inactive: 0.52; with AKAP12 C1139 (UniProt Q02952), inactive: 0.521.
With LGALS3BP C496 (UniProt Q08380) the figure was active: 1.72; with NCBP1 C503 (UniProt Q09161), inactive: 0.295; with SNTB2 C374 (UniProt Q13425), inactive: 0.146.
The same measure for UniProt Q07955_C148: inactive: 0.0351.
On to UniProt Q12948_C529, for which the “log2 ratio” value was inactive: 0.755.
With TRIM28 C232 (UniProt Q13263) the figure was inactive: 0.0352; with GRSF1 C173 (UniProt Q12849), inactive: 0.484.
With MVK C275 (UniProt Q03426) the figure was inactive: -0.134; with UniProt Q13131_C238, inactive: 0.387.
The same measure for NFX1 C295 (UniProt Q12986): inactive: 0.68.
In the case of NSUN2 C93 (UniProt Q08J23), the “log2 ratio” value was inactive: 0.0853.
With GTF3C1 C1981 (UniProt Q12789) the figure was inactive: 0.746; with GTF3C1 C544 (UniProt Q12789), inactive: 0.77; with TBL3 C613 (UniProt Q12788), inactive: 0.77.
As to TRAF2 C287 (UniProt Q12933), the “log2 ratio” value was inactive: 0.192.
With SCAP C875 (UniProt Q12770) the figure was inactive: 0.46.
AHNAK C1900 (UniProt Q09666): the “log2 ratio” value was inactive: 0.376.
With PPAT C105 (UniProt Q06203) the figure was inactive: 0.528.
Regarding UniProt Q12905_C271, the “log2 ratio” value is inactive: 0.137.
The same measure for ILF3 C255 (UniProt Q12906): inactive: 0.35; for TARDBP C39 (UniProt Q13148): inactive: 0.132; for GABPB1 C331 (UniProt Q06547): inactive: 0.198.
The same measure for UniProt Q08170_C61: inactive: 0.0854; for FLII C46 (UniProt Q13045): inactive: 0.205.
With AHNAK C108 (UniProt Q09666) the figure was inactive: 0.642; with TRIM28 C65 (UniProt Q13263), inactive: -0.087.
On to KIF1A C609 (UniProt Q12756), for which the “log2 ratio” value is inactive: 0.332.
The same measure for UniProt Q12904_C161: inactive: 0.0283.
The same measure for PDE3B C767 (UniProt Q13370): inactive: 0.175; for LAMTOR4 C51 (UniProt Q0VGL1): inactive: 0.577.
With CSTF3 C536 (UniProt Q12996) the figure was inactive: 0.38; with TCOF1 C1012 (UniProt Q13428), inactive: 0.438.
In the case of TRIM28 C717 (UniProt Q13263), the “log2 ratio” value was inactive: -0.00982.
As for NCBP1 C44 (UniProt Q09161), the “log2 ratio” value was inactive: 0.144.
Regarding ILK C239 (UniProt Q13418), the “log2 ratio” value is inactive: 0.769.
As for UBE3A C140 (UniProt Q05086), the “log2 ratio” value is inactive: 0.0641.
Turning to PTPN11 C104 (UniProt Q06124), the “log2 ratio” value is inactive: -0.0651.
The same measure for TRAF2 C182 (UniProt Q12933): inactive: -0.179; for SCRN3 C102 (UniProt Q0VDG4): inactive: 0.169; for AKAP12 C1479 (UniProt Q02952): inactive: 0.264.
With TARBP1 C24 (UniProt Q13395) the figure was inactive: 0.0551.
In the case of SOS1 C926 (UniProt Q07889), the “log2 ratio” value is inactive: -0.0185.
With NFIA C6 (UniProt Q12857) the figure was inactive: -0.0083.
